This test is described as follows: qHTS Assay for Modulators of Lamin A Splicing. Conditions: HeLa LMNA splicing GFP/RFP minigene ratio, 48 h. In short, it runs like this: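 S3 HeLa cells stably expressing lamin A-EGFP splicing minigene plus DsRed2, 600 cells/well, 48 h compound exposure at 37C. Laser-scanning cytometry; analysed as GFP (500-530 nm)/RFP (575-640 nm) total intensity ratio; 0.5% DMSO vehicle.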

Setting [1] is: measured here: GFP splicing reporter channel.
[2] abbreviates: measured here: RFP viability control channel.

The list shows a part of the results. These are further read-outs of the screen, such as a control signal, another cell line or another target. No call is given for them. The list favours compounds with an active or inconclusive main result. Potencies come from curve fits of mixed quality, noted in brackets.

For the molecule `CCOc1ccc(N2C(=O)CC(NCC3CCCO3)C2=O)cc1` (centres undefined), the AC50 under setting [1] was 0.02 µM [rising, full curve, poor fit]. With `CC1(C)CC[C@]2(C(=O)O)CC[C@@]3(C)C(=CCC4[C@@]5(C)CCC(O)[C@@](C)(CO)C5CC[C@@]43C)C2C1` (some centres undefined), the AC50 by setting is: under setting [1], 12.6 µM [rising, partial curve, poor fit]; under setting [2], 22.4 µM [rising, single point]. With `COc1ccc2c(c1)C(=O)[C@@H](O)[C@H](c1ccc(OC)c(Br)c1)O2`, the AC50 is, setting by setting: under setting [1], 35.5 µM [rising, single point]; under setting [2], 28.2 µM [rising, single point]. As to `C=CCN1N=C(c2ccc(Cl)s2)CSC1=O`, under setting [2], the AC50 was 15.8 µM [falling, single point]. Same read-out and setting: the same measure for `COC(=O)c1ccccc1NC(=O)C1CC(=O)N(c2ccc(OC)cc2)C1` (centres undefined): 5.01 µM [rising, partial curve, poor fit].

With `CCn1nc(C)c2c(-c3ccccc3)cc(=O)n(C(C)C(=O)NCCC(C)C)c21` (centres undefined), the AC50 under setting [1] is 11.2 µM [falling, partial curve, poor fit] and the AC50 under setting [2] was 0.00355 µM [falling, full curve, poor fit]. Take `C=CCn1c(C)cc(C(=O)Cn2ncc(Cl)c(Cl)c2=O)c1C`: the AC50 under setting [2] is 35.5 µM [falling, single point]. Regarding `Cc1sc(NC(=O)CCC(=O)O)c(C(N)=O)c1-c1ccccc1`, the AC50 under setting [1] was 0.0794 µM [rising, full curve, poor fit]. For the molecule `Cc1ccc(NC(=O)Cn2nc(C(=O)Nc3ccc(C)cc3)ccc2=O)cc1`, under setting [2], the AC50 is 0.0316 µM [falling, full curve, poor fit]. For `CS(=O)(=O)c1ccc(S(=O)CC(=O)OCc2ccccc2)c([N+](=O)[O-])c1` (centres undefined), the AC50 under setting [2] was 10 µM [falling, partial curve]. On the same count and under the same terms, the same measure for `COc1ccc(CNS(=O)(=O)c2ccc(N3CCCCS3(=O)=O)cc2)cc1`: 2.51 µM [falling, single point].

On to `CC(C)OC(=O)c1ccc(NC(=O)c2ccccc2)cc1`, for which the AC50 is, setting by setting: under setting [1], 12.6 µM [rising, partial curve, poor fit]; under setting [2], 31.6 µM [rising, partial curve]. With `O=C1OCCN1/N=C\c1ccc([N+](=O)[O-])o1`, the AC50 under setting [1] was 0.01 µM [falling, full curve, poor fit].

In the case of `O=C(COc1ccccc1F)Nc1ccc2nc(SCCOc3ccccc3)sc2c1`, the AC50 under setting [2] is 0.251 µM [falling, full curve, poor fit].

For the molecule `CC(C)(C)OC(=O)N1CCC(c2c(C(=O)NCc3cccc(Cl)c3)cnn2-c2ccc(F)cc2)CC1`, under setting [1], the AC50 was 0.00891 µM [rising, full curve].

Take `O=C(C=C=Nc1ccccc1)C(=O)N=C=Cc1ccccc1`: the AC50 runs as follows: under setting [1], 0.891 µM [falling, full curve, poor fit]; under setting [2], 2.82 µM [falling, partial curve]. `O=C(NCc1cccnc1)C(=O)NCC1OCCN1S(=O)(=O)c1ccc(Cl)cc1` (centres undefined): the AC50 under setting [2] is 35.5 µM [rising, single point].

Take `COc1cc(/C=C(\C#N)C(=O)NCC2CCCO2)ccc1O` (centres undefined): the AC50 under setting [2] was 20 µM [rising, single point]. Regarding `OCCNc1nc2ccccc2n1-c1ncnc2sc3c(c12)CCC3`, under setting [2], the AC50 was 17.8 µM [rising, single point]. Regarding `Cc1ccc(S(=O)(=O)N2CCC(=O)N(C(CO)C(C)C)CC2)cc1` (centres undefined), the AC50 runs as follows: under setting [1], 0.708 µM [falling, full curve]; under setting [2], 1.58 µM [falling, partial curve, poor fit]. Take `O=C(/C(=C/c1ccc(Cl)cc1)c1nc2ccccc2[nH]1)c1ccccc1`: the AC50 runs as follows: under setting [1], 2.82 µM [falling, full curve]; under setting [2], 3.55 µM [falling, full curve]. Regarding `CC1CCN(C(=O)Cn2c(=O)n(CC3CCC(C(=O)NC(C)C)CC3)c(=O)c3sccc32)CC1` (centres undefined), the AC50 reads like this: under setting [1], 0.01 µM [falling, full curve, poor fit]; under setting [2], 0.00794 µM [falling, full curve, poor fit]. Turning to `Nn1c(SCC(=O)Nc2ccc3c(c2)OCO3)nncc1=O`, the AC50 runs as follows: under setting [1], 0.01 µM [falling, full curve, poor fit]; under setting [2], 0.00447 µM [falling, full curve, poor fit]. As for `On1c(-c2ccccc2Cl)nc2ccccc21`, the AC50 under setting [2] is 39.8 µM [falling, partial curve, poor fit]. On the same count and under the same terms, the same measure for `Cn1cc(-c2cc3n(n2)CCC(=O)N3CCCC(=O)NCc2ccc(Cl)cc2)c2ccccc21`: 20 µM [falling, partial curve, poor fit].

In the case of `Cc1ccc(NC(=O)COc2ncnc3ccccc23)cc1S(=O)(=O)N1CCOCC1`, the AC50 under setting [2] was 0.0355 µM [rising, full curve, poor fit].

For the molecule `O=C(O)CCCC(=O)NCCCCc1ccccc1`, the AC50 under setting [2] is 0.00501 µM [falling, full curve, poor fit].

`CCOC(=O)c1cc(-c2ccc(OC)cc2)n(CCC(=O)Nc2ccccc2OC)c1C`: the AC50 was 35.5 µM [falling, single point] under setting [1] and 0.0112 µM [falling, full curve, poor fit] under setting [2]. `O=C(Cn1cc([N+](=O)[O-])nc1[N+](=O)[O-])N1CCN(c2ccccc2)CC1`: under setting [2], the AC50 was 35.5 µM [falling, single point].

In the case of `Cc1ccc(/C=C2\SC(=S)N(Cc3ccccc3)C2=O)o1`, the AC50 by setting is: under setting [1], 22.4 µM [falling, single point]; under setting [2], 25.1 µM [falling, single point]. Consider `O=C(Nc1nnc(C2CC2)o1)c1ccc(S(=O)(=O)N2CCCc3ccccc32)cc1`, for which the AC50 under setting [2] is 10 µM [rising, partial curve]. With `COC(=O)c1ccc(N2CCCCC2)c(NS(=O)(=O)c2ccc(C)cc2)c1`, the AC50 under setting [1] is 14.1 µM [rising, single point] and the AC50 under setting [2] is 22.4 µM [rising, single point]. With `CS(=O)(=O)Nc1nnc(Cc2ccccc2)s1`, the AC50 under setting [1] is 1.58 µM [falling, partial curve] and the AC50 under setting [2] was 0.794 µM [falling, single point].

Consider `Cc1cccc(-n2c(SCC(=O)Nc3ncc(Cl)cc3Cl)nc3ccccc32)c1`, for which, under setting [2], the AC50 is 2.82 µM [rising, partial curve]. With `CCCCCOc1ccc(Br)cc1/C(C)=N/NC1=NCCN1`, under setting [2], the AC50 was 3.16 µM [rising, full curve].

`O=C(NC(NC(=S)Nc1ccccc1)C(Cl)(Cl)Cl)c1cccc(Cl)c1` (centres undefined): the AC50 under setting [1] is 17.8 µM [falling, partial curve] and the AC50 under setting [2] was 25.1 µM [falling, partial curve].

On to `C/C(=N\NC(=O)c1ccc(Br)cc1)C1C(=O)c2ccccc2C1=O`, for which the AC50 under setting [2] was 17.8 µM [rising, partial curve, poor fit].

In the case of `CCOC(=O)Cn1c(=O)n(CC2CCCO2)c2nc(-c3ccccc3OC)nc(C(N)=O)c21` (centres undefined), the AC50 under setting [1] is 8.91 µM [falling, partial curve]. Consider `O=C(NCc1cccs1)c1ccc2c(=O)n3nc(Nc4ccccc4)sc3nc2c1`, for which the AC50 by setting is: under setting [1], 28.2 µM [falling, single point]; under setting [2], 2.51 µM [rising, partial curve]. With `Cc1c(NC(=O)/C(C#N)=C/c2ccc(-c3ccc(Cl)c(Cl)c3)o2)c(=O)n(-c2ccccc2)n1C`, the AC50 under setting [2] was 0.891 µM [rising, partial curve, poor fit]. Still for that read-out and setting: the same measure for `Cc1c(C=O)c2ccccc2n1CC(=O)N1CCc2ccccc2C1`: 25.1 µM [rising, single point]. Consider `Cc1ccc2[nH]c(=O)c(-c3nc4cc(C)ccn4c3NCc3ccco3)cc2c1`, for which the AC50 under setting [1] was 15.8 µM [rising, partial curve] and the AC50 under setting [2] is 15.8 µM [rising, partial curve, poor fit]. `N#Cc1c(N)nc(SCc2ccncc2)c(C#N)c1-c1cccs1`: the AC50 under setting [2] was 11.2 µM [rising, single point].

For the molecule `CCOC(=O)CN1NC2(CCC(C(C)(C)C)CC2)NC1=S` (centres undefined), under setting [2], the AC50 is 35.5 µM [falling, single point]. `Cc1ccccc1NC(=O)C(C#N)Cc1cccnc1` (centres undefined): the AC50 is 0.0631 µM [falling, full curve, poor fit] under setting [1] and 0.0631 µM [falling, full curve, poor fit] under setting [2]. As for `O=S(=O)(Nc1ccc2c3c(cccc13)CC2)c1ccc(F)cc1`, the AC50 under setting [1] is 17.8 µM [rising, single point]. As to `O=C1CCc2cc(S(=O)(=O)NCCC(=O)NC3CCN(Cc4ccccc4)CC3)ccc2N1`, the AC50 under setting [2] was 0.398 µM [falling, partial curve, poor fit].

In the case of `CCC1Oc2ccc(C)cc2N(CC(=O)N2CCN(c3ccc(F)cc3)CC2)C1=O` (centres undefined), the AC50 runs as follows: under setting [1], 25.1 µM [rising, single point]; under setting [2], 35.5 µM [rising, partial curve]. Regarding `Cc1nc(CC(=O)NNS(=O)(=O)c2ccc3ccccc3c2)cs1`, the AC50 under setting [2] is 3.55 µM [rising, partial curve, poor fit]. For `O=C(CN(Cc1ccco1)C(=O)c1ccc(Cl)cc1)Nc1ccc(Cl)c(Cl)c1`, the AC50 under setting [2] was 12.6 µM [rising, single point]. As to `COc1ccc(C)cc1C1=Nc2ccccc2C1(C)C`, the AC50 is 11.2 µM [rising, single point] under setting [1] and 31.6 µM [rising, single point] under setting [2]. With `CC(/C=N/NC(=O)c1cc(-c2ccncc2)nc2ccccc12)=C\c1ccco1`, the AC50 under setting [2] was 0.891 µM [rising, partial curve]. With `O=C(Nc1ccc(F)cc1)N(CCCN1CCOCC1)Cc1cc2cc3c(cc2[nH]c1=O)OCCO3`, the AC50 under setting [1] was 35.5 µM [rising, single point] and the AC50 under setting [2] is 20 µM [rising, single point]. On to `CCN(CC)S(=O)(=O)c1ccc(N2CCOCC2)c(NC(=O)c2cc([N+](=O)[O-])ccc2Cl)c1`, for which, under setting [1], the half-maximal activity concentration (AC50) is 0.355 µM [falling, single point].

The values above are taken from PubChem BioAssay AID1487 (National Center for Advancing Translational Sciences (NCATS), 2009).
